Results are given in words; binding and its absence hold for the method and conditions named. Some results given as binding are weak or reduced against the parent protein; the word gives no strength.
Target: Biotinylated human Norrin R107E/R109E/R115L (human) (UniProt Q00604)
Experiment: SPR; Biacore T200, 25 C, 10 mM HEPES, pH 7.5, 0.15 M NaCl, 0.005% Tween20; biotinylated Norrin variants captured on streptavidin coupled to a CM5 chip; glycosylated FzCRD proteins or Lrp6 P1E1P2E2 as analytes; equilibrium binding, 1:1 Langmuir model; whether the biotinylated Norrin was purified before capture is not told

Protein sequences, listed by entry. Tags and fused reporters are not part of them. Lines headed by an entry give the natural chain unless they say otherwise; changes in a name come on top. Chains listed by the source or under a name are the forms on record and can include a tag or linker. Residues count along the entry.
Biotinylated human Norrin R107E/R109E/R115L (Q00604, form named): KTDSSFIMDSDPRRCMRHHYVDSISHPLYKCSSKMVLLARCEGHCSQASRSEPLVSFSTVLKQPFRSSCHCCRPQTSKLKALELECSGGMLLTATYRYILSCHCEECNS
UniProt O75581, residues 20-631: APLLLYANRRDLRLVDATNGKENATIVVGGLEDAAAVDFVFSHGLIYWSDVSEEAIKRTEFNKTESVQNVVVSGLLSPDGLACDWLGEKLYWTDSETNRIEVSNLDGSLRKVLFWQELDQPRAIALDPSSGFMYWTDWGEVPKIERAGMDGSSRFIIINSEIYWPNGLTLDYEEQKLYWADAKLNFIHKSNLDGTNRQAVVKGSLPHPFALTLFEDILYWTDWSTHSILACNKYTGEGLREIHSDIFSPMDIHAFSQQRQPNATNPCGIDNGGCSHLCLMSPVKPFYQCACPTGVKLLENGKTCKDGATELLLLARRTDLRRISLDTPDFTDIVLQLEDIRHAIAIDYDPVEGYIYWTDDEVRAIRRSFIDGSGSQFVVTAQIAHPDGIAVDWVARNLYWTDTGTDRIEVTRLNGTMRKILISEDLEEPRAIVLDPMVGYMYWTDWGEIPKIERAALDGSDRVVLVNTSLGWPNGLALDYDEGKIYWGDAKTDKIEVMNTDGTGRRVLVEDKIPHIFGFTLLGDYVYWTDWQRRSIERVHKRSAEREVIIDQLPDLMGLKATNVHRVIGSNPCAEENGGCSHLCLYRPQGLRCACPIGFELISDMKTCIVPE

- binding: binds
Substance: Lrp6 ectodomain fragment comprising the first two tandem beta-propeller-epidermal growth factor-like domain pairs (Lrp6 P1E1P2E2), human (from UniProt O75581 20-631) (domain or fragment)
